Here are results for one substance from publication PMC13076686.

By UniProt entry, the sequences of proteins in these tests, tags left out.
UniProt Q8CFI0: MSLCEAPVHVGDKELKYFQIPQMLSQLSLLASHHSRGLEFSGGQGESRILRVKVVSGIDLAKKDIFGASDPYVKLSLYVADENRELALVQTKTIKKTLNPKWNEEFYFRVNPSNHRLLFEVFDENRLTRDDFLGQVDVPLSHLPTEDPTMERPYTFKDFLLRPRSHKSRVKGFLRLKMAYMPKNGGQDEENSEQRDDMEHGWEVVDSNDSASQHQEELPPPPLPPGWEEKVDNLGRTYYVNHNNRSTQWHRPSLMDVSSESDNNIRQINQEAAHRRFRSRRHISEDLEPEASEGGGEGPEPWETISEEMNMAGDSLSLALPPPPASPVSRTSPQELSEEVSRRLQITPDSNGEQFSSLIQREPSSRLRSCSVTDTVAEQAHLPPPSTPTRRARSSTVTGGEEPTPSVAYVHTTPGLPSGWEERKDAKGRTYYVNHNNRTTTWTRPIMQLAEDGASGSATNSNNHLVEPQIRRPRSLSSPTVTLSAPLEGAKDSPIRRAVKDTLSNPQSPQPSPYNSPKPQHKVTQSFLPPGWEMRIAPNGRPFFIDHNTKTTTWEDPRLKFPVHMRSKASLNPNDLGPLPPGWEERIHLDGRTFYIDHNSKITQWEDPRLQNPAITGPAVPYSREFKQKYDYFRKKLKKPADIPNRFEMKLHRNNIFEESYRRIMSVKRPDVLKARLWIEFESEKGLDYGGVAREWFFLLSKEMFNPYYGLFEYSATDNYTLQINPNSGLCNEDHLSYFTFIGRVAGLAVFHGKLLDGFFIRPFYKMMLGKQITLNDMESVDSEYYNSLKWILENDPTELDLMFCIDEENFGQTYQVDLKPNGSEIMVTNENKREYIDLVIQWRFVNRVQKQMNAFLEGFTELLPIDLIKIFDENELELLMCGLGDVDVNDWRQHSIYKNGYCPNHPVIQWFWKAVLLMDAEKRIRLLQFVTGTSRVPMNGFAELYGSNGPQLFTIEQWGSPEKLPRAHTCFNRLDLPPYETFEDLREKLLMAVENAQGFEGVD

The target of the test is T1, Gasdermin E (endogenous, kidney cortical collecting duct CCD cells) (mouse (endogenous in CCD)) (UniProt Q9Z2D3).
T1 sequence: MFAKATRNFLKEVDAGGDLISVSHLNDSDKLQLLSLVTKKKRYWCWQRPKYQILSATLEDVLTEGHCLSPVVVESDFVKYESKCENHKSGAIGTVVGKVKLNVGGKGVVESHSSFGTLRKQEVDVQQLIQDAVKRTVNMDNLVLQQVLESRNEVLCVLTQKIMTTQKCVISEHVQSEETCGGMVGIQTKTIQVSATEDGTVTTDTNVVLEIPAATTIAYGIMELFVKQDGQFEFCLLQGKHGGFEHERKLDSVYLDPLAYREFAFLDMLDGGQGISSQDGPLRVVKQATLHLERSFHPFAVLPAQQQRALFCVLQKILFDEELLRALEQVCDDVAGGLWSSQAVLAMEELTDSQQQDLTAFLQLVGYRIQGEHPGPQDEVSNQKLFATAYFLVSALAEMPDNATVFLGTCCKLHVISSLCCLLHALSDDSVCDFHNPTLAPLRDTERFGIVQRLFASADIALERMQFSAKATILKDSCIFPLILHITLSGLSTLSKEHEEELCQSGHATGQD
The experiment in a line: co-IP; endogenous proteins in lysates of WT THP-1 and CCD cells (NEDD4L KO and GSDMD KO cells as controls); Verhagen lysis buffer (150 mM NaCl, 20 mM Tris-HCl pH 7.5, 2 mM EDTA, 10% glycerol, 1% Triton-X); Protein A/G magnetic agarose beads with antibody to NEDD4-2, GSDMD or GSDME, 4 °C overnight; immunoblot. Background: Immunoblotting shows a protein as a band on a membrane.

These are yes or no findings as the source states them, for the method shown. In cells and extracts the contact can be indirect. Some entries that bind do so weakly or less than the wild type.

As for “NEDD4-2 (endogenous, kidney cortical collecting duct CCD cells) (from UniProt Q8CFI0 1-1004) (enzyme)”, the binding result is recorded as “binds”.
